Data: publication PMC5131364, “Pharmacologic modulation of RORγt translates to efficacy in preclinical and translational models of psoriasis and inflammatory arthritis” (Scientific Reports, 2016)
No constants are given. Whether binding was seen depends on the method and setting. Some results given as binding are weak or reduced against the parent protein; the word gives no strength.

Sequences of proteins named here, by UniProt entry; tags and fusion partners are left off. Residues count along the entry.
UniProt O75376, residues 1906-2312: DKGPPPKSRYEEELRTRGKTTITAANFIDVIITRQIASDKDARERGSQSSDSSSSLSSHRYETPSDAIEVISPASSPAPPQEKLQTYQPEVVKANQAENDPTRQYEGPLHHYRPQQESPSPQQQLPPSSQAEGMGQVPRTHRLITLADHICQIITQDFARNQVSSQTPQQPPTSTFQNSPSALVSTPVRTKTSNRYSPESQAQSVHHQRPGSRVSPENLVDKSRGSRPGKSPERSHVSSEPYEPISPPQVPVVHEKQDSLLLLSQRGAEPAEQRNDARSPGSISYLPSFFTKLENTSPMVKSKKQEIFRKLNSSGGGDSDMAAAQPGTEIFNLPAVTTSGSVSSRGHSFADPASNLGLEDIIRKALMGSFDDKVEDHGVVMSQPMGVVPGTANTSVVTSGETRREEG

Target: pCMV-BD fused with NCoR (aa1906-2312) (UniProt O75376)
Assay: two-hybrid; mammalian two-hybrid in HEK293T: pCMV-BD-NCoR (aa1906-2312), pCMV-AD-RORγt, pFR-Luc and pRL-CMV reporters; titrated JNJ-54271074 overnight; luciferase read-out

Substance: NFκB-AD-RORγt fusion protein (from UniProt P51449-2 1-497)
- binding: binds
